Assay results as given in publication PMC11441981.
No constants are given. Whether binding was seen depends on the method and setting. Binding seen in cells or lysates may run through a third protein. A yes stands for co-enrichment or nearness to the bait. Other partners may have been found. For some of these results: A no says only that the protein was not detected with the bait. Each block holds one molecule with its values, some of them ahead of it.

Protein sequences, listed by entry. Tags and fused reporters are not part of them.
UniProt Q9NRY5: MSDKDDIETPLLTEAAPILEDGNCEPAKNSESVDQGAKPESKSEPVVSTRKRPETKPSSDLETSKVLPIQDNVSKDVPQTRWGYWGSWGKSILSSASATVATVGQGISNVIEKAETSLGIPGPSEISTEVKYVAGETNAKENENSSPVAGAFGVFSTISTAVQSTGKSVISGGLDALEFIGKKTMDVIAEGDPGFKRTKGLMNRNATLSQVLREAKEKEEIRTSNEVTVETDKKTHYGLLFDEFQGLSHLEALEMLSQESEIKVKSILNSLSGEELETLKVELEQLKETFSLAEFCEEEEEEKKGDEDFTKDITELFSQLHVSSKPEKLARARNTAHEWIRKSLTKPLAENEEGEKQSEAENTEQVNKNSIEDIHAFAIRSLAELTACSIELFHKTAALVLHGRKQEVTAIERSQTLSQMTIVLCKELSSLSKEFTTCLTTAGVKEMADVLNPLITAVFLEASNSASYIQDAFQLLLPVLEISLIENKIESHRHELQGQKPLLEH
UniProt Q8IWE2: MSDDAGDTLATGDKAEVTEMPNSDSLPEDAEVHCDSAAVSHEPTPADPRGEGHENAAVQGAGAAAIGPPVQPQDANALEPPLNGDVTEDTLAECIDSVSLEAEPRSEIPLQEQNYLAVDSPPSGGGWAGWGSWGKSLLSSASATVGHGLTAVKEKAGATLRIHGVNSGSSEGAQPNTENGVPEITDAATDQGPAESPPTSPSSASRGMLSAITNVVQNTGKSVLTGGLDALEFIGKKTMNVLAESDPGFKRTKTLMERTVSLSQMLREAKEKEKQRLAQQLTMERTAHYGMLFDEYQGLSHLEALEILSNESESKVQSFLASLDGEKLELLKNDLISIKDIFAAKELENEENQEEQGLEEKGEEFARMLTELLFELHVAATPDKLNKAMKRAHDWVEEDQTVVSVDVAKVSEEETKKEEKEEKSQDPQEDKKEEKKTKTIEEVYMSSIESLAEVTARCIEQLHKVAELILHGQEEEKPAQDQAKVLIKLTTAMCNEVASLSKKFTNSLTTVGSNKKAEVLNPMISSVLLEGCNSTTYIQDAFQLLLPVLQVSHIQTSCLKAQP
UniProt Q9VQ93: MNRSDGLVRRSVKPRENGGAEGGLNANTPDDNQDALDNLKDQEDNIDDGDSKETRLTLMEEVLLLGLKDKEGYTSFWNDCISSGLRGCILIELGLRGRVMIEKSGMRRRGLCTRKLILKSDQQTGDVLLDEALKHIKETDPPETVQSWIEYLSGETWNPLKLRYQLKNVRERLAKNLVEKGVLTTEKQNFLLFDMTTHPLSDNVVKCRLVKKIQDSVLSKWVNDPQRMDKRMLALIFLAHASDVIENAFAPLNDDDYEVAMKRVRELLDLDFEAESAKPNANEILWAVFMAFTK
UniProt Q8WUD1: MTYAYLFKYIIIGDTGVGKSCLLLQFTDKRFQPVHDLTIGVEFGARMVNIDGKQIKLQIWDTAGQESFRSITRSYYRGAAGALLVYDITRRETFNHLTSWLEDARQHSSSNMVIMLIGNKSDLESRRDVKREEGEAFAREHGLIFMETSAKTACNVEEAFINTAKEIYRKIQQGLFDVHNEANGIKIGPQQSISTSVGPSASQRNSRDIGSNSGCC
UniProt Q10471: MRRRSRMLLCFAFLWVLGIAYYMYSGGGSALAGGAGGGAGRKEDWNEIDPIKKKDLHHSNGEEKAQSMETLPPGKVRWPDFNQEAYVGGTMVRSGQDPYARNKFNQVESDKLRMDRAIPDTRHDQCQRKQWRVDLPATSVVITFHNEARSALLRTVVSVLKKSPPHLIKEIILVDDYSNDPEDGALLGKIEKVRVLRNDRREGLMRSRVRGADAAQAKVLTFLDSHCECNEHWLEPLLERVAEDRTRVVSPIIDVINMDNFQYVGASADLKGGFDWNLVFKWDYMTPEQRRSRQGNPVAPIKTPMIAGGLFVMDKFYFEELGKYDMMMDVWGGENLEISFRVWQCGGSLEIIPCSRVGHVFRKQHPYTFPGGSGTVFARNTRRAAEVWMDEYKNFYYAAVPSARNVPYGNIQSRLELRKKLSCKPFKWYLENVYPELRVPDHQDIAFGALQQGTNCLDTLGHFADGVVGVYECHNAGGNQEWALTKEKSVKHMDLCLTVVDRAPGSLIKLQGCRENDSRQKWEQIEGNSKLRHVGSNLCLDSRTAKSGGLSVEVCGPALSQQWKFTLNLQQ
UniProt P61019: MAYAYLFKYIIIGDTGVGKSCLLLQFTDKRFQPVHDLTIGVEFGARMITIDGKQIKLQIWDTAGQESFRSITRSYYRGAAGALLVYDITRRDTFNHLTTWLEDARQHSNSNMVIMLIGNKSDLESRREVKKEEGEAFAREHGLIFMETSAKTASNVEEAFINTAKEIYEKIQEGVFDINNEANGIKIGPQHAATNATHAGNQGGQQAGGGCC

Assays:
[1] = target: GST-tagged FAM114A2 (produced in bacteria) (human) (UniProt Q9NRY5); test: affinity purification with mass spectrometry; GST-tagged FAM114A1 or FAM114A2 from bacteria on glutathione-Sepharose beads; precleared HEK293T cell lysate, 4°C 1 h, lysis buffer 50 mM Tris-HCl pH 7.4, 150 mM NaCl, 1 mM EDTA, 0.5% Triton X-100; eluted with 1.5 M NaCl; compared with GST alone, three biological replicates; only the target …
[2] = target: GST-tagged FAM114A1 (produced in bacteria) (human) (UniProt Q8IWE2); test: as above
[3] = target: GST-tagged CG9590 (Drosophila FAM114A) (Drosophila) (UniProt Q9VF39); test: affinity purification with mass spectrometry; GST fusions (CG9590, CG9590 W24A W27A, Sauron) from bacteria on glutathione-Sepharose beads; precleared S2 cell lysate, 4°C 1 h, lysis buffer 50 mM Tris-HCl pH 7.4, 150 mM NaCl, 1 mM EDTA, 0.5% Triton X-100; eluted with 1.5 M NaCl; compared with GST alone or with each other, three biological replicates; only the target purified
[4] = target: GST-tagged Sauron (Drosophila GOLPH3) (Drosophila) (UniProt Q9VQ93); test: as above

binding [1]: binds
binding [2]: binds
Molecule: METTL26 (C16orf13) (from UniProt Q96S19 1-204)

binding [3]: binds
B1: Vap33 (protein, UniProt Q9W4N8 1-269)
chain: MSKSLFDLPLTIEPEHELRFVGPFTRPVVTIMTLRNNSALPLVFKIKTTAPKRYCVRPNIGKIIPFRSTQVEICLQPFVYDQQEKNKHKFMVQSVLAPMDADLSDLNKLWKDLEPEQLMDAKLKCVFEMPTAEANAENTSGGGAVGGGTGAAGGGSAGANTSSASAEALESKPKLSSEDKFKPSNLLETSESLDLLSGEIKALRECNIELRRENLHLKDQITRFRSSPAVKQVNEPYAPVLAEKQIPVFYIAVAIAAAIVSLLLGKFFL

binding [3]: no binding
binding [4]: no binding
B2: CG18661 (Drosophila ortholog of METTL26/C16orf13) (protein, UniProt Q9VLF6 1-222)
chain: MSLTKRLLHIHPRCSFSKRSHPSADRNSQPISEALLSQVDKTTENLQLLEIASGSGQHAGFLAPLLPNITFQPTEYERNQFGSIAAYAGDCPTRNIRPPFHVDITRDPGDWEAPPAPASYDYMFNSNMMHISPWSCSIGLFRAAGQLLKKGGRMFTYGPYAQDGILVPQSNVDFDRSLRQRDASWGVRDIKDLKVLAAENGLQLEKLVKMPSNNKFLTWLKL

The next lines start with the molecule.

Molecule: Rab2B (from UniProt Q8WUD1 1-216)
binding [1]: binds
binding [2]: binds

Molecule: GALNT2 (endogenous) (from UniProt Q10471 1-571) (enzyme)
binding [1]: binds

Molecule: Rab2A (from UniProt P61019 1-212)
binding [1]: binds
binding [2]: binds
